Results on two molecules are retold here after publication PMC11599456.

Chains of the proteins cited; added tags and fusions are not shown.
UniProt P55060: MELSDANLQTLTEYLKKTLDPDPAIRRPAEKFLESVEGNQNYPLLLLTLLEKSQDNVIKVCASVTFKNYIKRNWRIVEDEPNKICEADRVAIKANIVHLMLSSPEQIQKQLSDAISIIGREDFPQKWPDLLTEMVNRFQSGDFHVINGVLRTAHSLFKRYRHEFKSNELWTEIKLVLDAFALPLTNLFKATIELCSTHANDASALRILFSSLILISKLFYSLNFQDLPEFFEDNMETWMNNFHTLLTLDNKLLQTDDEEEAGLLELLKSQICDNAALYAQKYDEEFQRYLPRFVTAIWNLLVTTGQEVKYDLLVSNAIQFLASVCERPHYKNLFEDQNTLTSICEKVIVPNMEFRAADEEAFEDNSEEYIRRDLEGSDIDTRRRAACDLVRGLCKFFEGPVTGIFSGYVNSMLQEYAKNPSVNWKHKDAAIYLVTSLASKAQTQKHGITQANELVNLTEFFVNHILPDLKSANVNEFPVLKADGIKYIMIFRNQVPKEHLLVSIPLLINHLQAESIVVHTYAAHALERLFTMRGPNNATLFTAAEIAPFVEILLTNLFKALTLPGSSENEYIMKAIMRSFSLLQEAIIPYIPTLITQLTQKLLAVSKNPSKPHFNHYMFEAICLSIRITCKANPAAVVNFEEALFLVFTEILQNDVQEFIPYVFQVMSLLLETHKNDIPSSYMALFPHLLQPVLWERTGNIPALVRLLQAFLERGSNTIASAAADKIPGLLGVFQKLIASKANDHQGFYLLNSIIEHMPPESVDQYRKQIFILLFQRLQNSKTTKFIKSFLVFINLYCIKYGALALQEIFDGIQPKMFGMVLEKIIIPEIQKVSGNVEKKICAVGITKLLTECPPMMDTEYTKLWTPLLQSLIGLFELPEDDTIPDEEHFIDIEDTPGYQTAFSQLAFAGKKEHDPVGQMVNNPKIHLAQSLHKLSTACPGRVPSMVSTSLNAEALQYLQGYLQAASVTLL

The target in experiment [1] is T1, 5Myc-6His-CHRONO stably expressed in U2OS cells (human) (UniProt Q8N365).
T1 sequence: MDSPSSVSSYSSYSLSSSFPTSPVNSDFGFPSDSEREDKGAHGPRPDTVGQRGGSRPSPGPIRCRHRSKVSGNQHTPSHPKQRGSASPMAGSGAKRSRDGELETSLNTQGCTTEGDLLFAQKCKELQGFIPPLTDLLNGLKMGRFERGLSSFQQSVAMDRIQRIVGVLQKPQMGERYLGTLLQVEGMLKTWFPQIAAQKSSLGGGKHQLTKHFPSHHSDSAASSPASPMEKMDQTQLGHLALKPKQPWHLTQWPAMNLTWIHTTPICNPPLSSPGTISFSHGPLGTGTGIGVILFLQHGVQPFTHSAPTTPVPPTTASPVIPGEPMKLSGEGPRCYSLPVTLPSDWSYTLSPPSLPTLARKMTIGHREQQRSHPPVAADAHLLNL
Put plainly: affinity purification with mass spectrometry; anti-Myc antibody on Protein G agarose beads, lysate of U2OS cells stably expressing 5Myc6His-CHRONO; immunoglobulin G as background control; SDS-PAGE, in-gel trypsin digest, LC-MS/MS.

Experiment [2] has as its target T1, 5Myc-6His-CHRONO stably expressed in U2OS cells (human). The description is as above. The source holds these as a separate data set.

Read-outs that look alike come from different tables or passages of the source. No constants are given. Whether binding was seen depends on the method and setting. Binding seen in cells or lysates may run through a third protein. Here binding means that the protein was enriched with, or labelled near, the bait; the list need not be complete. Where a sequence is shown, tags or fusion partners need not be part of it.

Turning to “endogenous CSE1L of U2OS cells (from UniProt P55060 1-971)”, the binding result in experiment [1] is on record as “binds”.

B1: HNRNPDL (heterogeneous nuclear ribonucleoprotein D like), endogenous in U2OS cells (protein, UniProt O14979 1-420)
chain: MEVPPRLSHVPPPLFPSAPATLASRSLSHWRPRPPRQLAPLLPSLAPSSARQGARRAQRHVTAQQPSRLAGGAAIKGGRRRRPDLFRRHFKSSSIQRSAAAAAATRTARQHPPADSSVTMEDMNEYSNIEEFAEGSKINASKNQQDDGKMFIGGLSWDTSKKDLTEYLSRFGEVVDCTIKTDPVTGRSRGFGFVLFKDAASVDKVLELKEHKLDGKLIDPKRAKALKGKEPPKKVFVGGLSPDTSEEQIKEYFGAFGEIENIELPMDTKTNERRGFCFITYTDEEPVKKLLESRYHQIGSGKCEIKVAQPKEVYRQQQQQQKGGRGAAAGGRGGTRGRGRGQGQNWNQGFNNYYDQGYGNYNSAYGGDQNYSGYGGYDYTGYNYGNYGYGQGYADYSGQQSTYGKASRGGGNHQNNYQPY
As to B1, the binding entry in experiment [2] was “binds”.
